# According to PubChem BioAssay AID504834 (National Center for Advancing Translational Sciences (NCATS), 2011):
# Among all 320,000 compounds or so, about 22,000 (6.9%) were called active. This list was built around the results that the source calls inconclusive (neither active nor inactive); the mix of calls is not that of the screen. The call rests on the fitted dose curve; in most records, active means well fitted inhibition curve with a large enough effect; inconclusive means small, poorly fitted or top-dose-only effect, or another doubt; inactive means no such curve, though single readings can be large or run the other way. Potencies of inconclusive entries are doubtful fits and often do not repeat.
# Assay: Primary qHTS for delayed death inhibitors of the malarial parasite plastid, 96 hour incubation
# Details: P. falciparum luciferase reporter growth; series mostly up to 28.7 µM
# Summary of the method: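 Plates of compound plus infected erythrocytes (2% hematocrit, 0.05% parasitemia final) incubate 96 hours, 37 C, 5% CO2. Detection reagent added; reduced luminescence from the parasites' luciferase reporter flags inhibition.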
# Potency means the concentration at half of the fitted maximal effect.
row,SMILES,Potency
1,c1ccc(-c2cccc(-c3ccccc3)n2)cc1,inactive
2,O=C(CSc1n[nH]c(-c2ccccc2Cl)n1)NC1CCCCC1,inactive
3,CC(NC(=S)NC(=O)c1ccccc1Br)c1ccccc1 (stereo not given),"inconclusive: 18.5 µM [inhibitor, single point]"
4,COc1ccc(NC(=O)COC(=O)c2ccc(S(=O)(=O)N(C)c3ccccc3OC)cc2)c(OC)c1,inactive
5,Cc1nc2c(-c3ccc(F)cc3)c(C)nn2c(C)c1CCC(=O)NCCN1CCOCC1,"inconclusive: 2.08 µM [inhibitor, single point]"
6,O=C(O)c1cc(NN=Nc2ccc(Br)cc2)cc([N+](=O)[O-])c1,"inconclusive: 18.5 µM [inhibitor, partial curve, poor fit]"
7,COc1ccc(S(=O)(=O)NNC(=O)c2cc3ccccc3o2)cc1,inactive
8,C=CCC(C#Cc1ccc(C)cc1)N(CC)CC (stereo not given),inactive
9,COc1cccc2cc(C(=O)N3CC(C)OC(C)C3)c(=O)oc12 (stereo not given),inactive
10,C=CC[n+]1ccc(/C=C2\C=Cc3cc(C)ccc3N2CC)c2ccccc21,inactive
11,COc1ccc(CCN(C)C(=O)CSc2ncnc3sccc23)cc1OC,"inconclusive: 0.37 µM [inhibitor, partial curve, poor fit]"
12,O=C(NC(=O)c1c(F)cccc1F)Nc1ccccc1SC(F)F,inactive
13,CC(=O)c1c(C)[nH]c(C(=O)COc2ccc3ccc(=O)oc3c2)c1C,"inconclusive: 1.65 µM [inhibitor, single point]"
14,Cc1cc(C(=O)CSc2nnc(-c3cccnc3)n2-c2ccccc2F)c(C)n1CC1CCCO1 (stereo not given),active: 14.7 µM
15,C=CCN(Cc1nc(-c2cc(OC)c3c(c2)OCO3)oc1C)C1CCS(=O)(=O)C1 (stereo not given),"inconclusive: 5.86 µM [inhibitor, partial curve, poor fit]"
16,OC(CC1CC12c1ccccc1-c1ncccc12)(c1ccccc1)c1ccccc1 (stereo not given),active: 0.828 µM
17,OCCN1CCN(CCCN2c3ccccc3C=Cc3ccccc32)CC1,active: 6.01 µM
18,O=C(CCSCc1ccccc1F)NCc1ccc(F)cc1,active: 2.33 µM
19,O=C(N/N=C/c1c(O)n(C2CC2)c(=S)[nH]c1=O)c1ccccc1O,"inconclusive: 10.4 µM [inhibitor, partial curve, poor fit]"
20,COC(=O)Cn1c(CN2CCc3ccccc3C2)nc2c1c(=O)n(C)c(=O)n2C,inactive
21,CCOC(=O)C1=C(C)NC(C)=C(C(=O)OCC)C1c1cc(N)ccc1OC(F)F,"inconclusive: 5.22 µM [inhibitor, partial curve]"
22,Oc1ccccc1-c1nnc(-c2ccc(C(F)(F)F)cc2)o1,inactive
23,Fc1ccc(CN2CCN(c3ccc(Cl)cc3)CC2)cc1,inactive
24,NNC(=O)c1sccc1OCc1cccc(C(F)(F)F)c1,"inconclusive: 13.1 µM [inhibitor, single point]"
25,CC(NC(=O)c1ccc(F)cc1Cl)C1CC2CCC1C2 (stereo not given),inactive

row,SMILES,Potency
1,CCCc1c(C(=O)Nc2cc(C(C)(C)C)on2)cnn1-c1ccccc1,"inconclusive: 0.0294 µM [inhibitor, full curve, poor fit]"
2,Cc1cccc(-c2noc(CN(C)C(=O)COc3ccccc3)n2)c1,inactive
3,CS(=O)(=O)c1nc(-c2ccccc2)cc(C(F)(F)F)n1,inactive
4,Cc1nn(C)cc1C(=O)NNC(=S)Nc1ccc(Cl)cc1,"inconclusive: 0.465 µM [inhibitor, partial curve, poor fit]"
5,Cc1ccc(-c2cc(C(F)F)n3ncc(C(=O)N4CCN(c5ccccn5)CC4)c3n2)cc1,"inconclusive: 18.5 µM [inhibitor, single point]"
6,COc1ccc(/C=N/NC(=O)c2cc3c(ccc4ccccc43)o2)cc1OC,"inconclusive: 18.5 µM [inhibitor, single point]"
7,COCCn1c(=O)[nH]c2cc(C(=O)N3CCN(c4ccc(OC)cc4)CC3)ccc2c1=O,inactive
8,Cc1ccc(-n2nc(C(=O)c3ccccc3)n3c(=O)cc(-c4ccccc4)nc23)cc1,inactive
9,O=C(NCCc1ccccc1)c1ncn[nH]1,"inconclusive: 3.7 µM [inhibitor, single point]"
10,Cc1nn(CC(=O)N2CCOCC2)c(=O)c2c1sc1ccccc12,"inconclusive: 11.7 µM [inhibitor, single point]"
11,CC(C)(C)NCc1cc(Cl)ccc1OCc1ccccc1F,active: 8.28 µM
12,CCCN(CC1CC1)CC(O)c1ccccc1 (stereo not given),active: 13.1 µM
13,CC(C)(C)OC(=O)N1CCC(C(=O)NNC(=O)c2ccc(Cl)cc2Cl)CC1,"inconclusive: 2.08 µM [inhibitor, partial curve, poor fit]"
14,COC(=O)/C(=C\C(=O)c1ccc([N+](=O)[O-])cc1)Nc1ccc(OC)cc1,inactive
15,O=C(COc1ccc(S(=O)(=O)N2CCCCC2)cc1)NC1CCCCC1,"inconclusive: 11.7 µM [inhibitor, partial curve]"
16,CC(Oc1ccc(Br)cc1)C(=O)Nc1cc(Cl)ccc1N1CCN(C)CC1 (stereo not given),active: 11.7 µM
17,COc1ccc(C2C(C#N)=C(N)Oc3cc(O)ccc32)cc1Cl (stereo not given),"inconclusive: 8.28 µM [inhibitor, single point]"
18,C=CCNC(=O)/C(C#N)=C\c1cc(Cl)c(OCC)c(OC)c1,inactive
19,COc1ccc(OCCCC(=O)NNC(=O)c2ccncc2)cc1,inactive
20,CN(C)S(=O)(=O)c1cccc(NC(=O)C2Cc3ccccc3CN2C(=O)c2ccccc2)c1 (stereo not given),"inconclusive: 16.5 µM [inhibitor, partial curve, poor fit]"
21,NC(=O)CSc1nc2cc(Cl)ccc2c(=O)n1C1CCCCC1,"inconclusive: 10.4 µM [inhibitor, partial curve, poor fit]"
22,NC(=O)C1CCCN(C(=O)c2ccc3oc(Cc4ccc(Cl)cc4)nc3c2)C1 (stereo not given),"inconclusive: 16.5 µM [inhibitor, single point]"
23,Cc1ccc(NC(=O)N2C3CCCC2CC(NC(=O)C2CC2)C3)cc1 (stereo not given),inactive
24,Cn1c(CSc2nc3ccc(Br)cc3[nH]2)nc2ccccc21,"inconclusive: 13.1 µM [inhibitor, single point]"
25,CC1C(=O)N2CCCc3cc(NC(=O)COc4ccc(Cl)cc4)cc1c32 (stereo not given),active: 14.7 µM

# Reformatted: five of the compounds above.
row	SMILES	Potency
13	CC(C)(C)OC(=O)N1CCC(C(=O)NNC(=O)c2ccc(Cl)cc2Cl)CC1	inconclusive: 2.08 µM [inhibitor, partial curve, poor fit]
14	COC(=O)/C(=C\C(=O)c1ccc([N+](=O)[O-])cc1)Nc1ccc(OC)cc1	inactive
15	O=C(COc1ccc(S(=O)(=O)N2CCCCC2)cc1)NC1CCCCC1	inconclusive: 11.7 µM [inhibitor, partial curve]
16	CC(Oc1ccc(Br)cc1)C(=O)Nc1cc(Cl)ccc1N1CCN(C)CC1 (stereo not given)	active: 11.7 µM
17	COc1ccc(C2C(C#N)=C(N)Oc3cc(O)ccc32)cc1Cl (stereo not given)	inconclusive: 8.28 µM [inhibitor, single point]

# Next part.

row,SMILES,Potency
1,CCCc1ccc(/C=C2\C(=O)c3ccccc3C(O)=C2C(=O)OCC)cc1,"inconclusive: 5.22 µM [inhibitor, partial curve, poor fit]"
2,S=C(Nc1ccc(Cc2ccncc2)cc1)Nc1cccc(Cl)c1,active: 13.1 µM
3,O=C(COc1ccc(Cl)cc1)c1ccc(O)cc1O,inactive
4,CC(C)CN(C(=O)COC(=O)C12CC3CC(CC(Cl)(C3)C1)C2)c1c(N)n(Cc2ccccc2)c(=O)[nH]c1=O,"inconclusive: 5.22 µM [inhibitor, partial curve]"
5,CSc1ccc(Cl)c(C(=O)NCCOc2ccccc2)c1,"inconclusive: 4.15 µM [inhibitor, single point]"
6,OC(COc1ccc(Cl)cc1Cl)CN1CCc2ccccc2C1 (stereo not given),"inconclusive: 11.7 µM [inhibitor, single point]"
7,Cc1ccc(S(=O)(=O)N2CCN(C(=O)c3cc(C4CC4)nc4c3cnn4C(C)C)CC2)cc1,active: 2.62 µM
8,Oc1ccc(C2C[C@H]3CC[C@@H]2C3)cc1O (stereo not given in full),inactive
9,Cc1ccccc1NC(=O)Cc1nc(CCl)cs1,"inconclusive: 18.5 µM [inhibitor, single point]"
10,Cc1ccc(OCc2cc(C(=O)N3CCc4sccc4C3)no2)cc1C,"inconclusive: 10.4 µM [inhibitor, partial curve, poor fit]"
11,Cc1cc(=O)n2c(n1)SCOC2,inactive
12,CCOc1ccc(OCC)c(NC(=O)Nc2ccc3c(c2)N(C)C(=O)CS3)c1,"inconclusive: 18.5 µM [inhibitor, single point]"
13,O=c1nc(/C=C/c2ccc(Cl)cc2Cl)cc(C(F)(F)F)[nH]1,"inconclusive: 13.1 µM [inhibitor, single point]"
14,COc1ccc(CNCc2ccc(OC)c3ccccc23)cc1,active: 2.33 µM
15,CN(CCO)c1cc(N2CCN(C(=O)c3ccco3)CC2)c2nonc2c1[N+](=O)[O-],"inconclusive: 18.5 µM [inhibitor, single point]"
16,CC(=O)N1c2ccc(S(=O)(=O)CCC(=O)O)cc2CC1C (stereo not given),"inconclusive: 0.104 µM [inhibitor, full curve]"
17,NNC(=S)NCc1ccccc1,active: 9.28 µM
18,O=C(CSCc1c(Cl)cccc1Cl)Nc1ccc2c(c1)OCO2,"inconclusive: 18.5 µM [inhibitor, partial curve, poor fit]"
19,COc1ccc(C2C(C#N)=C(/N=C/N3CCOCC3)OC3=C2C(=O)CC(C)(C)C3)cc1OC (stereo not given),"inconclusive: 11.7 µM [inhibitor, partial curve, poor fit]"
20,COc1ccc(-c2c(NC(=O)c3ccco3)oc3ccccc3c2=O)cc1OC,"inconclusive: 18.5 µM [inhibitor, single point]"
21,O=C(CCSc1ccccn1)c1ccccc1,inactive
22,CC1CCC(C(C)C)C(OP(=O)(c2ccccc2)C(O)c2ccncc2)C1 (stereo not given),"inconclusive: 10.4 µM [inhibitor, single point]"
23,CCc1ccc(S(=O)(=O)N/N=C(/C)c2ccncc2)cc1,"inconclusive: 10.4 µM [inhibitor, partial curve, poor fit]"
24,COc1ccc(/C=N/NC(=O)COc2cccc3ccccc23)c(C(=O)O)c1OC,"inconclusive: 9.28 µM [inhibitor, partial curve, poor fit]"
25,CCC(=O)c1cc(F)ccc1OCC(=O)N1CCN(c2ccc(F)cc2)CC1,inactive
